Patent US20080287396A1, “Phosphonated Fluoroquinolones, Antibacterial Analogs Thereof, and Methods for the Prevention and Treatment of Bone and Joint Infections” (TARGANTA THERAPEUTICA INC., priority 2005, published 2008)
At least one structure is not confirmed: it was looked up by name or label, or the drawing left a doubt.

What was measured:
[1] = Bone powder binding, fluorometric detection; conditions: 1 mg/ml compound, bone meal powder 10 mg/ml in PBS, 37° C., 1 h
Procedure: The ability of the example molecules to bind to bone powder was established in two parallel fashions, using either LC/MS or fluorometric detection. For LC/MS detection, a stock solution (5 mM) of the compound to be tested was added to 0.1M Tris-HCl buffer pH 7, 0.15M NaCl to reach a final concentration of 100 μM. Triplicate samples (1 mL) of the compound solutions were intensively shaken for 10 min with or without 25 mg of fresh or 20 mg of vacuum dried ground rat tibia bone. The samples were then centrifuged for 15 min at 10 000 g. The presence of unbound compound was measured by injection of 30 μL of each of the supernatants into an Agilent 1100™ LC/UV system. For fluorometric detection, an individual compound was dissolved in PBS or water (compound 52) and resuspended at a concentration of 1 mg/ml in a slurry of bone meal powder (Now Foods, Bloomingdale, Ill., USA) in PBS at 10 mg/ml. The suspension of drug/prodrug in bone meal powder was incubated at 37° C. for 1 h to allow for binding, and centrifuged at 13 000 rpm for 2 min, before recovering the supernatant. The bone meal powder pellet was then washed three times with 1 ml of PBS. All supernatants were saved and assessed for fluoroquinolone content by fluorescence measurements at excitation/emission wavelengths of 280/465 nm. The amount of fluoroquinolone was determined from standard curves generated for each experiment. […]

S. aureus ATCC 13709 = assay: Combination with Rifampicin in treatment of osteomyelitis induced in rats; format: in vivo, rat; conditions: 20 mg/kg s.c. on days 14, 15, 16, 17 after surgery; titer on day 43
Procedure: The cells were washed twice with phosphate-buffered saline (PBS) and resuspended in BHIB supplemented with 10% (vol./vol.) fetal bovine serum at a density of approximately 10^10 colony forming units (CFU)/ml (based upon turbidimetry). The suspension was aliquoted and a portion was used to check the CFU count. The culture was stored frozen (−80° C.) and was used without subculture. For use as an inoculum the culture was thawed, diluted in PBS and kept in an ice bath until it was used.
Animals were infected as described by O'Reilly et al. (Antimicrobial Agents and Chemotherapy (1992), 36(12): 2693-97) to generate the bone infection. Female CD rats (age, 57 to 70 days; n=5/group; Charles River, St-Constant, Canada) were anaesthetized by isofluorane before and during the surgery. Following complete induction of anesthesia, the rat was placed ventral side up and hair was shaved from the surgical site. The skin over the leg was cleaned and disinfected (proviodine-ethanol 70%). A longitudinal incision below the knee joint was made in the sagital plane. The incision was made over the bone below the “knee joint” (tibia head or condyle) but not completely extending to the ankle. A high speed drill fitted with a 2 mm bulb bit was used to drill a hole into the medullar cavity of the tibia. […]

O=C(COC(=O)c1cn(C2CC2)c2cc(N3CCNCC3)c(F)cc2c1=O)NC(P(=O)(O)O)P(=O)(O)O [Compound 57, (1,1-Bisphosphonomethylcarbamoyl)methyl 1-cyclopropyl-6-fluoro-1,4-dihydro-4-oxo-7-(piperazin-1-yl)quinoline-3-carboxylic acid]
Binding to bone (%) Fluorescence [1]: 97.2%

CO[C@H]1/C=C/O[C@@]2(C)Oc3c(C)c(O)c4c(O)c(c(/C=N/N5CCN(C)CC5)c(O)c4c3C2=O)NC(=O)/C(C)=C\C=C\[C@H](C)[C@H](O)[C@@H](C)[C@@H](O)[C@@H](C)[C@H](OC(C)=O)[C@@H]1C [Rifampicin, reference compound]
statistically significant decrease in the bacterial titer, Rifampicin alone (S. aureus ATCC 13709): not
